This is an account of results in publication PMC10580950.

For at least one entry, the source does not settle the construct or the ends of the probe. No signal at the amounts used counts as a negative. Weaker means in comparison with the reference protein, sequence or condition of that experiment.

The subject of this series is OxyR (Streptomyces gilvosporeus F607). Nature of the series: EMSA. Conditions: EMSA: 20 mM Tris pH 7.5, 60 mM KCl, 2 mM EDTA, 0.5 mM DTT, 4% Ficoll, 1 ug poly(dI-dC), 20 uL, 15-25 C, 30 min; recombinant protein; protein details: His6 (pET-15b); label: * at 5' end (biotin). A general note: Mobility shift assays separate free from complexed probe on a gel.

Turning to “ACCGCCCTTGCGGGGTCCTGGTCGAGCCACTGGCGGCTCCTTGCCGTCGCCTGCCGTCGTGTTCCGGACCCCTTGTCGGAATC (double strand) [psgnMR-2 wild-type oligo probe]”, the binding result was “binds”.
For “ACCGCCCTTGCGGATGTTTGGTCGAGCCACTGGTCATTCCTTGCCGTCGCCTGCCGTCGTGTTCCGGACCCCTTGTCGGAATC (double strand) [psgnMR-2-M5]”, the binding result was “binds more weakly”.
Consider “ACCGCCCTTGCGGGGTCCTGGTCGAGCCACTGGTACTTCCTTGCCGTCGCCTCAGCTCGTGTTCCGGACCCCTTGTCGGAATC (double strand) [psgnMR-2-M2]”, for which the binding result was “binds more weakly”.
“ACCGCCCTTGCGGATGTTTGGTCGAGCCACTGGCGGCTCCTTGCCGTCGCCTGCCGTCGTGTTCCGGACCCCTTGTCGGAATC (double strand) [psgnMR-2-M3]”: the binding result is reported as “binds more weakly”.
In the case of “ACCGCCCTTGCGGATGTTTGGTCGAGCCACTGGTCATTCCTTGCCGTCGCCTCAAGTCGTGTTCCTCGCACCTTGTCGGAATC (double strand) [psgnMR-2-M6]”, the binding result is listed as “no binding”.
The value for “ACCGCCCTTGCGGGGTCCTGGTCGAGCCACTGGTACTTCCTTGCCGTCGCCTGCCGTCGTGTTCCGGACCCCTTGTCGGAATC (double strand) [psgnMR-2-M1]” was “binds more weakly”; that for “ACCGCCCTTGCGGATGTTTGGTCGAGCCACTGGCGGCTCCTTGCCGTCGCCTGCCGTCGTGTTCCTCGCACCTTGTCGGAATC (double strand) [psgnMR-2-M4]” was “no binding”; that for “ACCGCCCTTGCGGATGTTTGGTCGAGCCACTGGTCATTCCTTGCCGTCGCCTCAAGTCGTGTTCCGGACCCCTTGTCGGAATC (double strand) [psgnMR-2-M7]” was “binds more weakly”.
